Results deposited as PubChem BioAssay AID1053208 (Peter MacCallum Cancer Centre, 2014)

Assay: 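Genes whose silencing cuts survival of bone tumour cells only with doxorubicin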 (primary screen)
Cells: mouse osteosarcoma cells, early-passage culture from an engineered mouse model of fibroblastic bone tumour
Reagent: siRNA pool against mouse genes, 40 nM
Time to read-out: about 120 h (48 h before drug, then 72 h with drug)
Treatment: doxorubicin 100 nM for 72 h, roughly 30-40% inhibitory dose
Measurement: 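Luminescent ATP signal taken as viability with or without 100 nM doxorubicin for 72 h; mean of two wells set against non-targeting siRNA and turned into robust z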
Direction: viability z-score with doxorubicin: higher = more viable cells under doxorubicin; viability z-score without drug: higher = more viable cells with knock-down alone
Active means: 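a pool counts as active when its viability z-score with doxorubicin is -2 or below and its z-score without drug lies between -2 and 2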
In all, the deposit lists about 17,000 reagents; below is an unselected part. In the full data, 788 (4.7%) were called active. 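Calls rest on z-score classes alone; an extra cut-off of viability at most 70% of control was not applied to them.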 Entries without a mark were called inactive. The numbers tell different reagents against one gene apart. Not all columns of the deposit are shown. No sequences are given here.

| target gene | pool no. | combined z-score class | viability z-score with doxorubicin | viability z-score without drug |
| --- | --- | --- | --- | --- |
| Ncf1 | 1 | no change with or without drug | 0.45 | -0.17 |
| Edem2 | 1 | no change with or without drug | -1.46 | -1.69 |
| Or4c1 | 1 | no change with or without drug | 0.34 | 1.85 |
| Galk2 | 1 | no change with or without drug | -1.01 | -0.34 |
| Dmrta1 | 1 | no change with or without drug | -1.35 | 1.52 |
| Wdpcp | 1 | no change with or without drug | -1.01 | -0.17 |
| Pglyrp3 | 1 | low cell count with doxorubicin only (active) | -2.02 | -0.84 |
| Prap1 | 1 | no change with or without drug | 0 | -0.51 |
| Krt15 | 1 | no change with or without drug | -0.56 | -1.18 |
| 6430571L13Rik | 1 | no change with or without drug | 0.34 | 1.52 |
| Serpina10 | 1 | no change with or without drug | -1.01 | 0.34 |
| Tcf15 | 1 | no change with or without drug | -0.67 | 1.18 |
| Serf1 | 1 | no change with or without drug | -0.45 | -1.85 |
| Gga3 | 1 | no change with or without drug | 0 | 1.01 |
| Oscp1 | 1 | no change with or without drug | 0.67 | 0.84 |
| Trip6 | 1 | no change with or without drug | -1.57 | -0.51 |
| C230086A09RIK | 1 | no change with or without drug | 0.79 | 0.17 |
| Cabp5 | 1 | no change with or without drug | 0 | 0.51 |
| Tll1 | 1 | no change with or without drug | -1.12 | -1.18 |
| Slc52a2 | 1 | no change with or without drug | -0.34 | -0.67 |
| Rpl18 | 1 | no change with or without drug | -1.91 | 1.85 |
| Rfx3 | 1 | no change with or without drug | -0.45 | 0.34 |
| Mia2 | 1 | no change with or without drug | 0.56 | 0.84 |
| Mia2 | 2 | no change with or without drug | -0.45 | 0.84 |
| D930048N14Rik | 1 | no change with or without drug | 0.67 | 0.51 |
| Jpt2 | 1 | no change with or without drug | 0.45 | 1.18 |
| Nell1 | 1 | no change with or without drug | 0.67 | -0.51 |
| Isoc1 | 1 | no change with or without drug | 0.9 | 0.67 |
| Pmvk | 1 | no change with or without drug | 1.8 | 0.84 |
| Rspo1 | 1 | no change with or without drug | -0.22 | 0.17 |
| Bclaf1 | 1 | no change with or without drug | 1.01 | -0.84 |
| Nr1d2 | 1 | no change with or without drug | 1.8 | 0.34 |
| Zfp696 | 1 | no change with or without drug | 0 | 0.17 |
| Tbcc | 1 | no change with or without drug | -0.45 | 0.51 |

An excerpt taken from the entries so far, for reference:
| target gene | pool no. | combined z-score class | viability z-score with doxorubicin | viability z-score without drug |
| --- | --- | --- | --- | --- |
| Cabp5 | 1 | no change with or without drug | 0 | 0.51 |
| Tll1 | 1 | no change with or without drug | -1.12 | -1.18 |
| Slc52a2 | 1 | no change with or without drug | -0.34 | -0.67 |
